Experimental data from US6642355B2 (priority 1991, dated 2003).
For some of these results: Strings that start with PEPTIDE1 are HELM notation: dots part the residues, brackets hold end groups and non-standard residues. * marks the point of attachment. Fmoc = O=C(OCC1c2ccccc2-c2ccccc21)*; Cbz = O=C(OCc1ccccc1)*; OBn = c1ccc(CO*)cc1

Legend:
[1] = general procedure: hybrid (solid and solution phase) peptide synthesis; symmetrical acid anhydride (ABI 430A); PyBOP for cyclisation/condensation; conditions: whole synthesis; for isolated mass: scale 60 μmol
[2] = Fmoc solid-phase peptide synthesis; symmetrical acid anhydride (ABI 430A); PyBOP for cyclisation/condensation; conditions: whole synthesis, scale 10.4 μmol

H-Gly-Asn-Trp-Lys-Gly-Thr-Ala-Pro-Asp-Trp-Val-Tyr-Phe-Ala-His-Leu-Asp-Ile-Ile-Trp-OH
crude mass ([1]; scale 10.4 μmol): 30.0 mg

Gly-Asp-Trp-His-Gly-Thr-Ala-Pro-Asp-Trp-Val-Tyr-Phe-Ala-His-Leu-Asp-Ile-Ile-Trp-OH
crude mass ([1]; scale 10.4 μmol): 19.2 mg

Fmoc-GNWK(Cbz)GTA-OH
isolated mass [1]: 9.9 mg

H-Gly-Asn-Trp-His-Gly-Thr-Ala-Pro-Asp-Trp-Val-Tyr-Tyr-Ala-His-Leu-Asp-Ile-Ile-Trp-OH
crude mass ([1]; scale 15.6 μmol): 63.5 mg

PEPTIDE1{G.N.W.H.G.T.A.P.D.W.V.Y.F.A.H.L.D.I.I.W}$$$$V2.0
crude mass [2]: 25 mg

H-Gly-Asn-Trp-His-Gly-Thr-Ala-Pro-Asp-Trp-Leu-Tyr-Phe-Ala-His-Gln-Asp-Val-Ile-Trp-OH
crude mass ([1]; scale 15.6 μmol): 56.0 mg

Fmoc-GD(OBn)WHGTA-OH
isolated mass [1]: 40.5 mg
